Measurements: the supplement of paper PMC12823440, “Inhibitors supercharge kinase turnover through native proteolytic circuits” (Nature, 2025)
Counter-ions that a name gives are not always drawn. This is one part of the list. The calls rarely recur for the same compound in another form.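 In K562 cells expressing nanoluciferase-fused kinases, luminescence was recorded at 4 h intervals between 2 and 18 h, normalized as percent of control with DMSO at 100% and a positive control at 0%. A significant (2 sigma) signal drop marks a time point as decreased. The authors' rule for a hit is not shown and takes in more than the number of time points.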

By UniProt entry, the sequences of proteins in these tests, tags left out. Where a name states a change or a piece, a line headed by the entry shows the natural chain unless it says otherwise.
UniProt P50613: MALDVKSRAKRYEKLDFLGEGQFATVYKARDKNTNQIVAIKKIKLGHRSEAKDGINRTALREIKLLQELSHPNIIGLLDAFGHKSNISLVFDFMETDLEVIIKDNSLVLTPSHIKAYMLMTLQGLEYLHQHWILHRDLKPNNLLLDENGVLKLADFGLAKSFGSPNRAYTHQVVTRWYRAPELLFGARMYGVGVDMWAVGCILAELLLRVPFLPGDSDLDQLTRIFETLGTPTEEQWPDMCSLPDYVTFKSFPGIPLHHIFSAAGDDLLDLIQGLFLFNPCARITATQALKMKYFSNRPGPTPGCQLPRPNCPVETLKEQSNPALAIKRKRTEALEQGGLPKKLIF
UniProt P50750, whole entry: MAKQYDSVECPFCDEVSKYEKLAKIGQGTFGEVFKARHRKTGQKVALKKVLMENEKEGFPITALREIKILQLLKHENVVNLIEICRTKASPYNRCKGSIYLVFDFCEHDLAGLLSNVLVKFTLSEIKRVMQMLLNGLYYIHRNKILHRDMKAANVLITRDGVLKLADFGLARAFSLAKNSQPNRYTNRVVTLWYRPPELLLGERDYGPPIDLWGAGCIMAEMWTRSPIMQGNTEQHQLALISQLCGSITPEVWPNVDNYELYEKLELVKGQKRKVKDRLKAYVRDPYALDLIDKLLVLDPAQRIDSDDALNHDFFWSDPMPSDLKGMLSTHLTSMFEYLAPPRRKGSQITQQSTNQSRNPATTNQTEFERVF
UniProt O96017, whole entry: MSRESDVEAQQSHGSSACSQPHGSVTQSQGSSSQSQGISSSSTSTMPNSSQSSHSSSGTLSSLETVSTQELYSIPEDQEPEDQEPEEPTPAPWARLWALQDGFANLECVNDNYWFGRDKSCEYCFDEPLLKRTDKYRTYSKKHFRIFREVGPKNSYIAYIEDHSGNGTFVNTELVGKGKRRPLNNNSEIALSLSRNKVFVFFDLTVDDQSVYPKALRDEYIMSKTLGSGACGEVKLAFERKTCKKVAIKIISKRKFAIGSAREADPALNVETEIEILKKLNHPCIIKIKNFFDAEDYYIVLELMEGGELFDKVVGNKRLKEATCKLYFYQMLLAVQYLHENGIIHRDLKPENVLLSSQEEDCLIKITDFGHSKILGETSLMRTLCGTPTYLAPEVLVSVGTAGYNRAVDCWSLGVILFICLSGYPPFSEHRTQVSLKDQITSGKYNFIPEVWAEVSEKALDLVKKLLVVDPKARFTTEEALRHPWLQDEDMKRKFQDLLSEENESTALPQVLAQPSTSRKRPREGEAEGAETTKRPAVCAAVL
UniProt P07333, whole entry: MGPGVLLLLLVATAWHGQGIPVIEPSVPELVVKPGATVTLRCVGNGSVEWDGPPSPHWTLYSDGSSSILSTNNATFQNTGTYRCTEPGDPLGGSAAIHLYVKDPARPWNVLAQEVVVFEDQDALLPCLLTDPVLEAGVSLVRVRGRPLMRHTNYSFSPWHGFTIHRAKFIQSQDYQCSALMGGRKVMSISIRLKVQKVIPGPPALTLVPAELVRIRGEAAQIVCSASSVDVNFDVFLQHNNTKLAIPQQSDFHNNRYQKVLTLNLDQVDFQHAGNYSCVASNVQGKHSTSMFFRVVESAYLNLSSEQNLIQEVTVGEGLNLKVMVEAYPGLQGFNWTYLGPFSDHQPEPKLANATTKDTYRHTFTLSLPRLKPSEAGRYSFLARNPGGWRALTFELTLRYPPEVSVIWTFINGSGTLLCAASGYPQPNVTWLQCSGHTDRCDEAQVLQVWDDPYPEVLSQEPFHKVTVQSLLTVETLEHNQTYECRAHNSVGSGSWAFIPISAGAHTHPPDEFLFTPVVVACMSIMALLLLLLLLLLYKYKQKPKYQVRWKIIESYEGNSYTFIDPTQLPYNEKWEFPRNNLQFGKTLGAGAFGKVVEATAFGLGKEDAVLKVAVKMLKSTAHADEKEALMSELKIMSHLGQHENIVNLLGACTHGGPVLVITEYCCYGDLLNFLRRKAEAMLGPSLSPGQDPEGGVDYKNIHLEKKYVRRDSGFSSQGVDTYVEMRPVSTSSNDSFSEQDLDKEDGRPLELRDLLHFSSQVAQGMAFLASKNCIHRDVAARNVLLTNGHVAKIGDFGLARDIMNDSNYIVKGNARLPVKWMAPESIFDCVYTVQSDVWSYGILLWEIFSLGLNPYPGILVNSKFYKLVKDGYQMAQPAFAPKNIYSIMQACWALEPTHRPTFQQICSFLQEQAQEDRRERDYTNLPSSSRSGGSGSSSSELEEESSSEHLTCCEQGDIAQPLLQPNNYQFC
UniProt P41240: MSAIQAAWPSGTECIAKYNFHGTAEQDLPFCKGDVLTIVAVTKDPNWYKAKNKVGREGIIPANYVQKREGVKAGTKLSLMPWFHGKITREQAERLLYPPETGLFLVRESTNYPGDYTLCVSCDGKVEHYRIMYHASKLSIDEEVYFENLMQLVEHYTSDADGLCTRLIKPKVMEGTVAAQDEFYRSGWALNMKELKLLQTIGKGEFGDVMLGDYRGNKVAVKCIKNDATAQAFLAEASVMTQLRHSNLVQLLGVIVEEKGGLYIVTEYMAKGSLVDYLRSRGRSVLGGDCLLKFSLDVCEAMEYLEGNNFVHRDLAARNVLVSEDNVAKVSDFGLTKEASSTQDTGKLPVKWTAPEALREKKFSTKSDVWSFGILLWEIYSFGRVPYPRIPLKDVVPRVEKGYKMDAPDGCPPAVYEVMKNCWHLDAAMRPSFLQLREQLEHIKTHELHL
UniProt P48729: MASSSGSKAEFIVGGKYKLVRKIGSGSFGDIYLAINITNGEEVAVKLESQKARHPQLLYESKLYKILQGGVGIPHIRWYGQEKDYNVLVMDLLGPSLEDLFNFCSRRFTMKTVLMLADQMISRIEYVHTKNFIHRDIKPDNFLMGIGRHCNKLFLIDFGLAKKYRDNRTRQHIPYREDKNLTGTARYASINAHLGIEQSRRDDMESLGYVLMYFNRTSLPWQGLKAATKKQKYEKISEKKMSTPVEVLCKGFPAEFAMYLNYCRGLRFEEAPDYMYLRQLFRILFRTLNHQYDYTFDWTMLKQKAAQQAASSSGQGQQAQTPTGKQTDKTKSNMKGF
UniProt P48730: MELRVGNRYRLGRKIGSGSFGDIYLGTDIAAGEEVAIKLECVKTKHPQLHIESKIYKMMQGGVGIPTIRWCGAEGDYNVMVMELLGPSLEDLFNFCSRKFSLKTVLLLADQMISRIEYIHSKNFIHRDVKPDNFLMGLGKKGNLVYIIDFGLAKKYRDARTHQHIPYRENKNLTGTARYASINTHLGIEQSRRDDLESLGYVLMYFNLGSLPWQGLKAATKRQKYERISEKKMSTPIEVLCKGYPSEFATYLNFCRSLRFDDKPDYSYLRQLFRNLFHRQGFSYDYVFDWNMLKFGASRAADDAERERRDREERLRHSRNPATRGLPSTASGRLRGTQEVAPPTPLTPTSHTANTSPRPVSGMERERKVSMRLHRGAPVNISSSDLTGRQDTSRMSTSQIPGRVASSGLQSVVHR
UniProt Q08345: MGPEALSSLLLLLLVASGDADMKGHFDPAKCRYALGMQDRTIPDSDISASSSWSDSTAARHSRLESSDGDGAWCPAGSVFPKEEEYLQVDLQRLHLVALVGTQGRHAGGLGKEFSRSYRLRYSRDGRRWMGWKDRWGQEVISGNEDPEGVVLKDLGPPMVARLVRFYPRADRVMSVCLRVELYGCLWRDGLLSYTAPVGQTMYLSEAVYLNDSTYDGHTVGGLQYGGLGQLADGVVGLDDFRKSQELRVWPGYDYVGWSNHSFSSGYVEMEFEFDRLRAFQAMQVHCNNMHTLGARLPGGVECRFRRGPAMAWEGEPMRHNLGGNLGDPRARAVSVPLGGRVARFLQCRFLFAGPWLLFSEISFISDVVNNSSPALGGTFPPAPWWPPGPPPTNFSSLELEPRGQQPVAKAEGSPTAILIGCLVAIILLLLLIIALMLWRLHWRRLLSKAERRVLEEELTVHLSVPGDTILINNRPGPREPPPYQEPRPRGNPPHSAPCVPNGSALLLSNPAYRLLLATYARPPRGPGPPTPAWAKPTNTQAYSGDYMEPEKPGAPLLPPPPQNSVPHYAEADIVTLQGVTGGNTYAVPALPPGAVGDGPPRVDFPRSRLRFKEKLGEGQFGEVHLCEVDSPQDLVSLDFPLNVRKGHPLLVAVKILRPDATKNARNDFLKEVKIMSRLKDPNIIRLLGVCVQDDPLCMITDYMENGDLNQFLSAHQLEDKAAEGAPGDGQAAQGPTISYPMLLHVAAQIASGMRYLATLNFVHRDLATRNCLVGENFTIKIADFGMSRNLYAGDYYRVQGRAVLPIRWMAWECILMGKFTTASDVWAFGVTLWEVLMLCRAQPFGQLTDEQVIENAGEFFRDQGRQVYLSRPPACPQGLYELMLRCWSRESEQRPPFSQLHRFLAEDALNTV
UniProt Q92630: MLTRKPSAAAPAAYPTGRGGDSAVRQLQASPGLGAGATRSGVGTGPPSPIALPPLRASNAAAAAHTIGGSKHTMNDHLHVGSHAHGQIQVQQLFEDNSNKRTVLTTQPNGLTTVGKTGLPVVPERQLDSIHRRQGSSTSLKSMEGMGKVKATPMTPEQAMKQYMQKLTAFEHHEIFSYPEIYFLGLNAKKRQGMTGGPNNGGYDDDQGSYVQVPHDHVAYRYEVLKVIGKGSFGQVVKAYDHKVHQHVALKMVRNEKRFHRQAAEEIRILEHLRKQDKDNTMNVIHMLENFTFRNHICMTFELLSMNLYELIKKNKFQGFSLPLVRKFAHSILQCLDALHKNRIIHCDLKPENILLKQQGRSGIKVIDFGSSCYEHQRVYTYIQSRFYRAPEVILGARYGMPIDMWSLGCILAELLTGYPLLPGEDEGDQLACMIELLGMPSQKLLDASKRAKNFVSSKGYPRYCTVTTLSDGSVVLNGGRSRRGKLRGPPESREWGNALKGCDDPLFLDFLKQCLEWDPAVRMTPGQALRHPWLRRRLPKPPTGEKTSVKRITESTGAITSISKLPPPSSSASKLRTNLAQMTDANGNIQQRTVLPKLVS
UniProt P21860, whole entry: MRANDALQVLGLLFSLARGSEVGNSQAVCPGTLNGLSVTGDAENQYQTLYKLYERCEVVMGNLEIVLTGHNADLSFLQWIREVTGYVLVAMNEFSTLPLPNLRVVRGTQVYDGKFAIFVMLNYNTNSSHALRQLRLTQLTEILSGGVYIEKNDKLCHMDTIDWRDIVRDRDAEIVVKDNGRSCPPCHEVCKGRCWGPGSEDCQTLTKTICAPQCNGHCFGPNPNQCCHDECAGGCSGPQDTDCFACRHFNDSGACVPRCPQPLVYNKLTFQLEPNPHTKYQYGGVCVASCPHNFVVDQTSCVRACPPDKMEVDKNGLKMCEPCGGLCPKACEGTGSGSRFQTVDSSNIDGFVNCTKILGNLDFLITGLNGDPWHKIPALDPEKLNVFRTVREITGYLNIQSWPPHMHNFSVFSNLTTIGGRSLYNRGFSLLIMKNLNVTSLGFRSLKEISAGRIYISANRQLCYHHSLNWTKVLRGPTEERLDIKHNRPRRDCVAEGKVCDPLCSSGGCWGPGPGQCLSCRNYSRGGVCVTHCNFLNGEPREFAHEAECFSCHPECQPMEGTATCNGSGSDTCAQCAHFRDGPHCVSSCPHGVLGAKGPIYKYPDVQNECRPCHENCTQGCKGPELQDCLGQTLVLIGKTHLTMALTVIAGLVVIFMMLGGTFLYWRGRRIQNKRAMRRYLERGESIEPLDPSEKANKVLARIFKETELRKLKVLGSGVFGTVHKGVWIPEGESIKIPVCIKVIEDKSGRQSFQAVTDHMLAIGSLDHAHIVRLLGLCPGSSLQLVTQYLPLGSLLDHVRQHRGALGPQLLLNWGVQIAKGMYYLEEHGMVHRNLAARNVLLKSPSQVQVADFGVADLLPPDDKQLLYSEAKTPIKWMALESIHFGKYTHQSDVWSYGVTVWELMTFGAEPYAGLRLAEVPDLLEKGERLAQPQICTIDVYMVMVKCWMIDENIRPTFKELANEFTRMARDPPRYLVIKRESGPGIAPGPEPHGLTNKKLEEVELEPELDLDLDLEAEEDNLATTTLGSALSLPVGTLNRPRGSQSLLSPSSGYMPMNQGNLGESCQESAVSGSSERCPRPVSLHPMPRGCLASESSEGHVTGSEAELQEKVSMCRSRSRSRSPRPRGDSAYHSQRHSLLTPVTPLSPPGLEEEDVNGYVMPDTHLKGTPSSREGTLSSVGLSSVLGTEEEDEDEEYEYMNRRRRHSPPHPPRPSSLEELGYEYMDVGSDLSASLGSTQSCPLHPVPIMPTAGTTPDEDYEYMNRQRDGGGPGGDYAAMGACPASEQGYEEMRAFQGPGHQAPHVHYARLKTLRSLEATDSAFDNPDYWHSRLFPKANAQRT

Experiments:
Assay in all cases: kinase-Nluc reporter destabilization hit call (1 = scored as downregulated) (binary); higher = compound decreases kinase abundance
Conditions in all cases: K562; 2-18 h
CDK7 = CDK7 (UniProt P50613)
CDK9 = CDK9 (UniProt P50750)
CHEK2 = CHEK2 (UniProt O96017)
CSF1R = CSF1R (UniProt P07333)
CSK = CSK (UniProt P41240)
CSNK1A1 = CSNK1A1 (UniProt P48729)
CSNK1D = CSNK1D (UniProt P48730)
DDR1 = DDR1 (UniProt Q08345)
DYRK1B = DYRK1B (UniProt Q9Y463)
DYRK2 = DYRK2 (UniProt Q92630)
EGFR = EGFR (UniProt P00533)
EGFR_G719S = EGFR_G719S (UniProt P00533)
EGFR_G719S_T790M = EGFR_G719S_T790M (UniProt P00533)
EGFR_L718V = EGFR_L718V (UniProt P00533)
EGFR_L858R = EGFR_L858R (UniProt P00533)
EGFR_L861Q = EGFR_L861Q (UniProt P00533)
EGFR_T790M = EGFR_T790M (UniProt P00533)
EPHA2 = EPHA2 (UniProt P29317)
ERBB3 = ERBB3 (UniProt P21860)
[1] = target: ERBB4_R711C (clone: ERBB4_mut) (UniProt Q15303)

SMILES	kinase-Nluc reporter destabilization hit call (CDK7)	kinase-Nluc reporter destabilization hit call (CDK9)	kinase-Nluc reporter destabilization hit call (CHEK2)	kinase-Nluc reporter destabilization hit call (CSF1R)	kinase-Nluc reporter destabilization hit call (CSK)	kinase-Nluc reporter destabilization hit call (CSNK1A1)	kinase-Nluc reporter destabilization hit call (CSNK1D)	kinase-Nluc reporter destabilization hit call (DDR1)	kinase-Nluc reporter destabilization hit call (DYRK1B)	kinase-Nluc reporter destabilization hit call (DYRK2)	kinase-Nluc reporter destabilization hit call (EGFR)	kinase-Nluc reporter destabilization hit call (EGFR_G719S)	kinase-Nluc reporter destabilization hit call (EGFR_G719S_T790M)	kinase-Nluc reporter destabilization hit call (EGFR_L718V)	kinase-Nluc reporter destabilization hit call (EGFR_L858R)	kinase-Nluc reporter destabilization hit call (EGFR_L861Q)	kinase-Nluc reporter destabilization hit call (EGFR_T790M)	kinase-Nluc reporter destabilization hit call (EPHA2)	kinase-Nluc reporter destabilization hit call (ERBB3)	kinase-Nluc reporter destabilization hit call [1]
COc1ncc(Cl)cc1S(=O)(=O)Nc1ccc(F)c(C#Cc2cnc(N)nc2)c1F (2.5 µM)	inactive: 0	inactive: 0	inactive: 0	inactive: 0	inactive: 0	active: 1	inactive: 0	inactive: 0	inactive: 0	inactive: 0	inactive: 0	inactive: 0	inactive: 0	inactive: 0	inactive: 0	inactive: 0	inactive: 0	inactive: 0	inactive: 0	inactive: 0
COc1cc2ncc(-c3ccccc3)nc2cc1OC [Tyrphostin AG1296] (10 µM)	inactive: 0	inactive: 0	inactive: 0	inactive: 0	inactive: 0	inactive: 0	inactive: 0	inactive: 0	inactive: 0	inactive: 0	inactive: 0	inactive: 0	inactive: 0	inactive: 0	inactive: 0	inactive: 0	inactive: 0	inactive: 0	inactive: 0	inactive: 0
FC(F)(F)c1ccc(CNc2ccc(Cc3c[nH]c4ncccc34)cn2)cc1 (10 µM)	inactive: 0	inactive: 0	inactive: 0	inactive: 0	inactive: 0	inactive: 0	inactive: 0	inactive: 0	inactive: 0	inactive: 0	inactive: 0	inactive: 0	inactive: 0	inactive: 0	inactive: 0	inactive: 0	inactive: 0	inactive: 0	inactive: 0	inactive: 0
Cc1cc(Nc2ncnc3ccc(NC4=NC(C)(C)CO4)cc23)ccc1Oc1ccn2ncnc2c1 [Tucatinib (hemiethanolate)] (2.5 µM)	inactive: 0	inactive: 0	inactive: 0	inactive: 0	inactive: 0	inactive: 0	inactive: 0	inactive: 0	inactive: 0	inactive: 0	inactive: 0	inactive: 0	inactive: 0	inactive: 0	inactive: 0	inactive: 0	inactive: 0	inactive: 0	inactive: 0	inactive: 0
COc1cc2nccc(Oc3ccc(NC(=O)NC4CC4)c(Cl)c3)c2cc1C(N)=O [Lenvatinib] (10 µM)	inactive: 0	inactive: 0	inactive: 0	inactive: 0	inactive: 0	inactive: 0	inactive: 0	inactive: 0	inactive: 0	inactive: 0	inactive: 0	inactive: 0	inactive: 0	inactive: 0	inactive: 0	inactive: 0	inactive: 0	inactive: 0	inactive: 0	inactive: 0
CC(=O)c1c(C)cc2cccc(O)c2c1O [Nepodin] (10 µM)	inactive: 0	inactive: 0	inactive: 0	inactive: 0	inactive: 0	inactive: 0	inactive: 0	inactive: 0	inactive: 0	inactive: 0	inactive: 0	inactive: 0	inactive: 0	inactive: 0	inactive: 0	inactive: 0	inactive: 0	inactive: 0	inactive: 0	inactive: 0
CCN1CCN(Cc2ccc(-c3cc4c(N[C@H](C)c5ccccc5)ncnc4[nH]3)cc2)CC1 (2.5 µM)	inactive: 0	inactive: 0	inactive: 0	inactive: 0	inactive: 0	inactive: 0	inactive: 0	inactive: 0	inactive: 0	inactive: 0	inactive: 0	inactive: 0	inactive: 0	inactive: 0	inactive: 0	inactive: 0	inactive: 0	inactive: 0	inactive: 0	inactive: 0
COc1cc2c(cc1OC)CN(S(=O)(=O)c1ccc(OC)c(N3CCN(C(=O)c4ccc(F)cc4C(F)(F)F)CC3)c1)CC2 (10 µM)	inactive: 0	inactive: 0	inactive: 0	inactive: 0	inactive: 0	inactive: 0	inactive: 0	inactive: 0	inactive: 0	inactive: 0	inactive: 0	inactive: 0	inactive: 0	inactive: 0	inactive: 0	inactive: 0	inactive: 0	inactive: 0	inactive: 0	inactive: 0
O=C(CSC1=NCCN1)NC1CCCCCC1 [ICCB-19 (hydrochloride)] (2.5 µM)	inactive: 0	inactive: 0	inactive: 0	inactive: 0	inactive: 0	inactive: 0	inactive: 0	inactive: 0	inactive: 0	inactive: 0	inactive: 0	inactive: 0	inactive: 0	inactive: 0	inactive: 0	inactive: 0	inactive: 0	inactive: 0	inactive: 0	inactive: 0
N#CCC1CCN(c2nc(Nc3ccc(N4CCC(O)CC4)cc3)c3c(=O)[nH]ncc3n2)CC1 [Gusacitinib] (10 µM)	inactive: 0	inactive: 0	inactive: 0	inactive: 0	inactive: 0	inactive: 0	inactive: 0	inactive: 0	inactive: 0	inactive: 0	inactive: 0	inactive: 0	inactive: 0	inactive: 0	inactive: 0	inactive: 0	inactive: 0	inactive: 0	inactive: 0	inactive: 0
c1cncc(CN2CCC(n3ncc4c(N5CCOCC5)nc(-c5ccc6[nH]ccc6c5)nc43)CC2)c1 (10 µM)	inactive: 0	inactive: 0	inactive: 0	inactive: 0	inactive: 0	inactive: 0	inactive: 0	inactive: 0	inactive: 0	inactive: 0	inactive: 0	inactive: 0	inactive: 0	inactive: 0	inactive: 0	inactive: 0	inactive: 0	inactive: 0	inactive: 0	inactive: 0
CCS(=O)(=O)c1ncc(Cl)c(C(=O)N(Cc2ccc(Cl)cc2)Cc2ccco2)n1 (2.5 µM)	inactive: 0	inactive: 0	inactive: 0	inactive: 0	inactive: 0	inactive: 0	inactive: 0	inactive: 0	inactive: 0	inactive: 0	inactive: 0	inactive: 0	inactive: 0	inactive: 0	inactive: 0	inactive: 0	inactive: 0	inactive: 0	inactive: 0	inactive: 0
Cc1ccccc1-c1c2nccc(-c3ccc(F)cc3F)c2cc[n+]1[O-] (10 µM)	inactive: 0	inactive: 0	inactive: 0	inactive: 0	inactive: 0	inactive: 0	inactive: 0	inactive: 0	inactive: 0	inactive: 0	inactive: 0	inactive: 0	inactive: 0	inactive: 0	inactive: 0	inactive: 0	inactive: 0	inactive: 0	inactive: 0	inactive: 0
Cn1cnc(Cn2ccc3ccc(CNCc4[nH]c5ccccc5c4[C@H]4NC(=O)c5ccc(O)cc54)cc32)c1 (10 µM)	inactive: 0	inactive: 0	inactive: 0	inactive: 0	inactive: 0	inactive: 0	inactive: 0	inactive: 0	inactive: 0	inactive: 0	inactive: 0	inactive: 0	inactive: 0	inactive: 0	inactive: 0	inactive: 0	inactive: 0	inactive: 0	inactive: 0	inactive: 0
CNc1nc(Nc2ccc(C(=O)N3CCOCC3)cc2OC)nc2[nH]cc(Cl)c12 (2.5 µM)	inactive: 0	inactive: 0	inactive: 0	inactive: 0	inactive: 0	inactive: 0	inactive: 0	inactive: 0	inactive: 0	inactive: 0	inactive: 0	inactive: 0	inactive: 0	inactive: 0	inactive: 0	inactive: 0	inactive: 0	inactive: 0	inactive: 0	inactive: 0
CC#CC(=O)N1CC[C@@H](n2c(=O)n(-c3ccc(Oc4ccccc4)cc3)c3c(N)ncnc32)C1 [Tirabrutinib] (10 µM)	inactive: 0	inactive: 0	inactive: 0	inactive: 0	inactive: 0	inactive: 0	inactive: 0	inactive: 0	inactive: 0	inactive: 0	inactive: 0	inactive: 0	inactive: 0	inactive: 0	inactive: 0	inactive: 0	inactive: 0	inactive: 0	inactive: 0	inactive: 0
C[C@@H](c1ccc(-c2ccccc2)c(F)c1)c1cc(NC(=N)N2CCOCC2)on1 [Rimacalib] (10 µM)	inactive: 0	inactive: 0	inactive: 0	inactive: 0	inactive: 0	inactive: 0	inactive: 0	inactive: 0	inactive: 0	inactive: 0	inactive: 0	inactive: 0	inactive: 0	inactive: 0	inactive: 0	inactive: 0	inactive: 0	inactive: 0	inactive: 0	inactive: 0
Nc1ccc(-c2cnc(N)c(-c3ccc(Cl)cc3)c2)cn1 (10 µM)	inactive: 0	inactive: 0	inactive: 0	inactive: 0	inactive: 0	inactive: 0	inactive: 0	inactive: 0	inactive: 0	inactive: 0	inactive: 0	inactive: 0	inactive: 0	inactive: 0	inactive: 0	inactive: 0	inactive: 0	inactive: 0	inactive: 0	inactive: 0
NC(=O)c1nc(Nc2ccccc2)sc1NC(=O)C1CCCCC1 (10 µM)	inactive: 0	inactive: 0	inactive: 0	inactive: 0	inactive: 0	inactive: 0	inactive: 0	inactive: 0	inactive: 0	inactive: 0	inactive: 0	inactive: 0	inactive: 0	inactive: 0	inactive: 0	inactive: 0	inactive: 0	inactive: 0	inactive: 0	inactive: 0

Whole records from above. Order of values: kinase-Nluc reporter destabilization hit call (CDK7) | kinase-Nluc reporter destabilization hit call (CDK9) | kinase-Nluc reporter destabilization hit call (CHEK2) | kinase-Nluc reporter destabilization hit call (CSF1R) | kinase-Nluc reporter destabilization hit call (CSK) | kinase-Nluc reporter destabilization hit call (CSNK1A1) | kinase-Nluc reporter destabilization hit call (CSNK1D) | kinase-Nluc reporter destabilization hit call (DDR1) | kinase-Nluc reporter destabilization hit call (DYRK1B) | kinase-Nluc reporter destabilization hit call (DYRK2) | kinase-Nluc reporter destabilization hit call (EGFR) | kinase-Nluc reporter destabilization hit call (EGFR_G719S) | kinase-Nluc reporter destabilization hit call (EGFR_G719S_T790M) | kinase-Nluc reporter destabilization hit call (EGFR_L718V) | kinase-Nluc reporter destabilization hit call (EGFR_L858R) | kinase-Nluc reporter destabilization hit call (EGFR_L861Q) | kinase-Nluc reporter destabilization hit call (EGFR_T790M) | kinase-Nluc reporter destabilization hit call (EPHA2) | kinase-Nluc reporter destabilization hit call (ERBB3) | kinase-Nluc reporter destabilization hit call [1]
Cc1ccccc1-c1c2nccc(-c3ccc(F)cc3F)c2cc[n+]1[O-] (10 µM) reads inactive: 0 | inactive: 0 | inactive: 0 | inactive: 0 | inactive: 0 | inactive: 0 | inactive: 0 | inactive: 0 | inactive: 0 | inactive: 0 | inactive: 0 | inactive: 0 | inactive: 0 | inactive: 0 | inactive: 0 | inactive: 0 | inactive: 0 | inactive: 0 | inactive: 0 | inactive: 0
C[C@@H](c1ccc(-c2ccccc2)c(F)c1)c1cc(NC(=N)N2CCOCC2)on1 [Rimacalib] (10 µM) reads inactive: 0 | inactive: 0 | inactive: 0 | inactive: 0 | inactive: 0 | inactive: 0 | inactive: 0 | inactive: 0 | inactive: 0 | inactive: 0 | inactive: 0 | inactive: 0 | inactive: 0 | inactive: 0 | inactive: 0 | inactive: 0 | inactive: 0 | inactive: 0 | inactive: 0 | inactive: 0
